The other results are listed elsewhere or left out. Further columns of the screen follow, without active or inactive calls. Most of these compounds were active or inconclusive in the main read-out, so they are no random draw. The note in brackets gives the kind of curve behind each potency; many fits are weak.
Experiment: qHTS Assay for Lipid Storage Modulators in Drosophila S3 Cells;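 as to cell number change: cells counted by Cell Tracker Red CMTPX staining in the red channel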
Details: BODIPY lipid droplet fluorescence, 18-24 h; for cell number change: measured here: cell count max response, cells fed with added oleic acid
In short: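 Drosophila S3 cells got compounds at several concentrations plus oleic acid (400 uM solution). Laser-scanning cytometry with 488 nm excitation read lipid droplets at 500-530 nm and cells at 575-640 nm. Percent activity was relative to 20 uM Triacsin C.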

[1] = measured here: lipid fluorescence (Fed channel) AC50, cells fed with added oleic acid
[2] = measured here: cell number channel AC50, cells fed with added oleic acid

Row | Structure (SMILES) | cell number change | AC50 [1] | AC50 [2]
1 | O=c1[nH]cnc(O)c1C(c1ccc([N+](=O)[O-])cc1)c1c(O)nc[nH]c1=O | -1.76% | 6.51 µM [rising, single point] | 
2 | COc1cc(OC)c(N2CC(C(=O)Nc3cc(Cl)ccc3N3CCOCC3)CC2=O)cc1Cl (centres undefined) | 0.774% | 0.164 µM [rising, full curve, poor fit] | 
3 | CC1=C(n2nnc([N+](=O)[O-])n2)C(c2cccnc2)C(C#N)=C(N)O1 (centres undefined) | -19.7% | 25.9 µM [falling, single point] | 
4 | Cc1cc(N=Cc2c(O)n(-c3cccc(Cl)c3)c(=O)c3ccccc23)no1 | 15.7% | 4.61 µM [rising, full curve] | 
5 | COC(=O)c1sc(=S)n(-c2ccc(Cl)cc2)c1C | 41.1% |  | 4.61 µM [rising, full curve, poor fit]
6 | COc1ccc(NC(=O)CSCC(=O)Nc2cccc(S(=O)(=O)N3CCCCCC3)c2)cc1 | -17.2% |  | 
7 | O=C(N/N=C/c1ccc(F)cc1)c1cc(-c2ccccn2)nc2ccccc12 |  |  | 6.51 µM [rising, single point]
8 | CC1CCN(Cc2ccc(NC(=O)CC3Oc4ccccc4NC3=O)cc2)CC1 (centres undefined) | 10.7% |  | 
9 | COc1ccc2oc(-c3ccccc3[N+](=O)[O-])cc(=O)c2c1 | -3.74% |  | 3.26 µM [falling, single point]
10 | COc1cccc(N(C(=O)Cn2nnc(-c3cccs3)n2)C(C(=O)NC(C)C)c2ccc(C)o2)c1 (centres undefined) |  |  | 0.0517 µM [falling, full curve, poor fit]
11 | COc1ccc(CN2C(=O)c3oc4ccccc4c(=O)c3C2c2ccc(O)c(OC)c2)cc1 (centres undefined) | 18.4% | 23.1 µM [rising, single point] | 
12 | CCOC(=O)C1=C(C)Nc2sc(C(=O)c3ccc(OC)cc3)c(N)c2C1c1ccc(C(=O)OC)cc1 (centres undefined) | -12.5% | 6.51 µM [rising, partial curve, poor fit] | 6.51 µM [rising, partial curve, poor fit]
13 | CCCCn1c(-c2ccccc2)cnc1SCC(=O)NCCc1ccc(OC)c(OC)c1 | -46.9% |  | 11.6 µM [falling, single point]
14 | Cc1noc2ncnc(Oc3ccc(F)cc3)c12 | 17.7% | 8.2 µM [rising, partial curve] | 
15 | CN(C(=O)CO/N=C/c1ccc(Cl)cc1)c1ccccc1 | 73.5% |  | 29.1 µM [rising, single point]
16 | O=[N+]([O-])c1ccc(N/N=C/c2cccc(O)c2O)cc1 | -33.6% | 29.1 µM [falling, single point] | 

Reformatted in markdown: entries from further up.

| Row | Structure (SMILES) | cell number change | AC50 [1] | AC50 [2] |
| --- | --- | --- | --- | --- |
| 7 | O=C(N/N=C/c1ccc(F)cc1)c1cc(-c2ccccn2)nc2ccccc12 |  |  | 6.51 µM [rising, single point] |
| 8 | CC1CCN(Cc2ccc(NC(=O)CC3Oc4ccccc4NC3=O)cc2)CC1 (centres undefined) | 10.7% |  |  |
